Results are given in words; binding and its absence hold for the method and conditions named. Binding seen in cells or lysates may run through a third protein. Some results given as binding are weak or reduced against the parent protein; the word gives no strength. For some assays here: Tags and fused reporters may be left off the sequences shown.
How the values were obtained:
[1] = target: VN-AbdA (AbdominalA fused to the N-terminal fragment of Venus) (Drosophila (D. melanogaster)) (UniProt P29555); assay: split reporter; BiFC competition in live Drosophila embryos: VN-AbdA and ORF-CC with co-expression of the corresponding non-complementing ORF-3xHA; abdA-Gal4 driver, epidermis of stage 10/11 embryos; identical parameters of confocal acquisition
[2] = target: T1, VN-Exd (Extradenticle fused to the N-terminal fragment of Venus) (Drosophila (D. melanogaster)) (UniProt P40427); assay: split reporter; bicolour BiFC in live Drosophila embryos: ORF-CC co-expressed with CN-AbdA, VN-Exd and a mCherry reporter; abdA-Gal4 driver, stage 10 embryos
T1 sequence: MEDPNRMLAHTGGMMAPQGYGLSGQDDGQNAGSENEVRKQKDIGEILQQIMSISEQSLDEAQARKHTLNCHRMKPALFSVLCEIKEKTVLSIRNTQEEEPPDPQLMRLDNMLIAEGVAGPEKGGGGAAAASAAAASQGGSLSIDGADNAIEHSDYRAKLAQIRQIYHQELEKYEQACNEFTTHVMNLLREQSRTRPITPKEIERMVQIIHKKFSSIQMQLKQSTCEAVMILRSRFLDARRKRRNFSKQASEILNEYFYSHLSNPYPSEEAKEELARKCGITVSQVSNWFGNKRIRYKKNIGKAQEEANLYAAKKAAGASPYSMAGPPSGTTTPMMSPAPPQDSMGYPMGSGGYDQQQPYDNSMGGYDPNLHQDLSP

Protein sequences, listed by entry. Tags and fused reporters are not part of them.
UniProt P29555: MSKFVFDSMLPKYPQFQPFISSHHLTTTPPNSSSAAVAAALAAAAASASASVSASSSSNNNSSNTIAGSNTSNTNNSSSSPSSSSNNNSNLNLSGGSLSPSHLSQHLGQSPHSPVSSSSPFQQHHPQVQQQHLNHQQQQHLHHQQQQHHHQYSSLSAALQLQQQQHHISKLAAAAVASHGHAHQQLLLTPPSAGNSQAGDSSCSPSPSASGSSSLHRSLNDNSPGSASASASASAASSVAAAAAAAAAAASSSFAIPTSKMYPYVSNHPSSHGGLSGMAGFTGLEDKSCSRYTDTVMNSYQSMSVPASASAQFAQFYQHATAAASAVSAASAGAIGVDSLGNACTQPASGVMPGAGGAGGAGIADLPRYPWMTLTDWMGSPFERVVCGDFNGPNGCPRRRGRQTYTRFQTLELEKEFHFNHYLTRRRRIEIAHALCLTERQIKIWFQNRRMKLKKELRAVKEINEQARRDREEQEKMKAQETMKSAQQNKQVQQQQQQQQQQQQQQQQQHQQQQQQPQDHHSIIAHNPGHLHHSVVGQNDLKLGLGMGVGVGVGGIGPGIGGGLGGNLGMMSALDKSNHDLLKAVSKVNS
UniProt P83949: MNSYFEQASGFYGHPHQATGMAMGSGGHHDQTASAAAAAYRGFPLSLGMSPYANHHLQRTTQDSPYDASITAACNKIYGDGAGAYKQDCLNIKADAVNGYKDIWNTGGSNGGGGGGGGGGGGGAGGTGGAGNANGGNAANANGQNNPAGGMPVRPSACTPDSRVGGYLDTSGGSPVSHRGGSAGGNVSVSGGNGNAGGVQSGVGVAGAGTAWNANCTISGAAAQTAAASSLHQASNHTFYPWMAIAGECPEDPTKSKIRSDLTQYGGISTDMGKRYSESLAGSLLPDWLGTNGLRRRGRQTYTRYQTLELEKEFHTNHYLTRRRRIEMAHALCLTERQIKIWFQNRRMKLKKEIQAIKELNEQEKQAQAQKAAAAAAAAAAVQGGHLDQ

[3] = target: CN-AbdA (AbdominalA fused to the N-terminal fragment of Cerulean) (Drosophila (D. melanogaster)) (UniProt P29555); assay: as above
[4] = target: CN-AbdA (AbdominalA fused to the N-terminal fragment of Cerulean) (Drosophila (D. melanogaster)) (UniProt P29555); assay: split reporter; Venus- or Cerulean-based BiFC in live Drosophila embryos; ORF-CC with VN-AbdA or CN-AbdA; abdA-Gal4 driver (epidermis, stage 10/11) or 24B-Gal4 driver (somatic mesoderm, stage 14); confocal observation
[5] = target: VN-AbdA (AbdominalA fused to the N-terminal fragment of Venus) (Drosophila (D. melanogaster)) (UniProt P29555); assay: as above
[6] = target: T2, sfGFPN-Exd (Extradenticle fused to the N-terminal fragment of super-folder GFP) (Drosophila (D. melanogaster)) (UniProt P40427); assay: split reporter; BiFC in live Drosophila embryos between ORF-CC constructs and VN-Exd or sfGFPN-Exd; abdA-Gal4 driver, epidermis of stage 10 embryos; sfGFP excitation and emission wavelengths for sfGFPN-Exd
T2 sequence: T1 sequence

[7] = target: Ultrabithorax (Ubx), bait of the large-scale BiFC screen (Drosophila (D. melanogaster)) (UniProt P83949); assay: split reporter; large-scale BiFC screen of 260 TFs (VN or CC fusions) with Ubx and AbdA in live Drosophila embryos; Ubx-Gal4 or abdA-Gal4 driver, epidermis of stage 10 embryos
[8] = target: AbdominalA (AbdA), bait of the large-scale BiFC screen (Drosophila (D. melanogaster)) (UniProt P29555); assay: as above
[9] = target: VC-Ubx (Ultrabithorax fused to the C-terminal fragment of Venus) (Drosophila (D. melanogaster)) (UniProt P83949); assay: split reporter; Venus-based BiFC in live Drosophila embryos; VC-Ubx and VN-Twi expressed with Ubx-Gal4, twi-Gal4 or the split-Gal4 system (Ubx-Gal4AD/twi-Gal4DBD); epidermis, somatic mesoderm and midgut visceral mesoderm
[10] = target: VN-AbdA (AbdominalA fused to the N-terminal fragment of Venus) (Drosophila (D. melanogaster)), P29555; assay: split reporter; Venus- or Cerulean-based BiFC in live Drosophila embryos; ORF-CC with VN-AbdA or CN-AbdA; abdA-Gal4 driver (epidermis, stage 10/11) or 24B-Gal4 driver (somatic mesoderm, stage 14); confocal observation; settings: remark: other sources report otherwise
[11] = target: CN-AbdA (AbdominalA fused to the N-terminal fragment of Cerulean) (Drosophila (D. melanogaster)), P29555; assay: as above; settings: remark: other sources report otherwise

B1: Empty spiracles ORF-CC (Ems-CC) (protein, UniProt P18488 1-494)
chain: MTKMIPPVPTAAAAVMMPTPKQKIGFSIESIVGNDVSTAGGNSTPDLSGPQSPPPGERNVPGSPPQTPPATLTLIPGSPPHHLMAPPAHGLPYPHPHAQQQHLQAPHPHPHLSPAQQHVLHQHLLMQQQHPGTPKSHQDIQELLQRLHHNAAMASGLSPLQTRLSPETEQPQMAVSLKRERSPAPPAMEQAENPAQRIQPPHTPPKSVSPQSSQPSSSPTLLISSPHATPPQQQQQQPPPNYPKPAMMHPGGAGPMMMPGMPPAGLVRPFPMGPGGPPMPQGQPGLPDIKALPPYINAPPELPPQHNPHLIAAAQFQMAAALQAGHVLGPAAAAAAAAGLPPHAAQFMPNPGMARDSYQLYPWLLSRHGRIFPHRFPGSFLVPPFRKPKRIRTAFSPSQLLKLEHAFESNQYVVGAERKALAQNLNLSETQVKVWFQNRRTKHKRMQQEDEKGGEGGSQRNMHNGSGDEDDDELIDMEMDECPSDEEHELDASH
- binding [1]: binds
- binding [2]: no binding
- binding [3]: binds
- binding [4]: binds
- binding [5]: binds
- binding [6]: no binding

B2: Spalt major (Salm), VN or CC fusion of the multicolor BiFC library (protein, UniProt P39770 1-1365)
chain: MKNHLSNVLCAMRSDFKDNHQETINKMIQFGTVKYGIVKQLKDRARSADKDIGSDQEENGGCSPLTTATTTASPSRSPEPEEEQPEEQSTSEQSIPEQSTPDHQLENDIKSEAKSEIEPVEDNNNRVAMTKPSSEEREPNASGSMPSSPVAEASAEEAATERTPEKEKEKDVEVDVEKPDEAPSSAVPSTEVTLPGGAGAPVTLEAIQNMQMAIAQFAAKTIANGSNGADNEAAMKQLAFLQQTLFNLQQQQLFQIQLIQQLQSQLALNQAKQEEDTEEDADQEQDQEQETDTYEEEERIADMELRQKAEARMAEAKARQHLINAGVPLRESSGSPAESLKRRREHDHESQPNRRPSLDNTHKADTAQDALAKLKEMENTPLPFGSDLASSIITNHDDLPEPNSLDLLQKRAQEVLDSASQGILANSMADDFAFGEKSGEGKGRNEPFFKHRCRYCGKVFGSDSALQIHIRSHTGERPFKCNVCGSRFTTKGNLKVHFQRHAQKFPHVPMNATPIPEHMDKFHPPLLDQMSPTDSSPNHSPAPPPLGSAPASFPPAFPGLQNLYRPPMEILKSLGAAAPHQYFPQELPTDLRKPSPQLDEDEPQVKNEPVEEKDQREEHEQEMAECSEPEPEPLPLEVRIKEERVEEQEQVKQEDHRIEPRRTPSPSSEHRSPHHHRHSHMGYPPVVQPIQPAALMHPQSSPGSQSHLDHLPTPGQLPPREDFFAERFPLNFTTAKMLSPEHHSPVRSPAGGALPPGVPPPPHHHPHHMARSPFFNPIKHEMAALLPRPHSNDNSWENFIEVSNTCETMKLKELMKNKKISDPNQCVVCDRVLSCKSALQMHYRTHTGERPFKCRICGRAFTTKGNLKTHMAVHKIRPPMRNFHQCPVCHKKYSNALVLQQHIRLHTGEPTDLTPEQIQAAEIRDPPPSMMPGHFMNPFAAAAFHFGALPGGPGGPPGPNHGAHNGALGSESSQGDMDDNMDCGEDYDDDVSSEHLSNSNLEQEGDRSRSGDDFKSLLFEQKLRIDATGVVNTNPVRPRSSASSHGHSVGSTSAPTSPSVHASSQVIKRSSSPARSEASQGALDLTPRAAPTSSSSSRSPLPKEKPVSPPSLPRSPSGSSHASANILTSPLPPTVGIDCLPPGLQHHLQQQHQHLMQQQAAVAAAAAAQHHHHQQMAALHQHQEQLRREAAEAQQKAAAAAAAAAAAAAAQRQTPPQARDQRQEGGPGAGPPPNPLMGARPPFGMFPNLPLFPPATTQNMCNAMNQIAQSVMPAAPFNPLALSGVRGSTTCGICYKTFPCHSALEIHYRSHTKERPFKCSICDRGFTTKGNLKQHMLTHKIRDMEQETFRNRAVKYMSEWNEDRE
- binding [7]: no binding
- binding [8]: binds

B3: VN-Twi (Twist fused to the N-terminal fragment of Venus) (protein, UniProt P10627 1-490)
chain: MMSARSVSPKVLLDISYKPTLPNIMELQNNVIKLIQVEQQAYMQSGYQLQHQQQHLHSHQHHQQHHQQQHAQYAPLPSEYAAYGITELEDTDYNIPSNEVLSTSSNQSAQSTSLELNNNNTSSNTNSSGNNPSGFDGQASSGSSWNEHGKRARSSGDYDCQTGGSLVMQPEHKKLIHQQQQQQQQHQQQIYVDYLPTTVDEVASAQSCPGVQSTCTSPQSHFDFPDEELPEHKAQVFLPLYNNQQQQSQQLQQQQPHQQSHAQMHFQNAYRQSFEGYEPANSLNGSAYSSSDRDDMEYARHNALSSVSDLNGGVMSPACLADDGSAGSLLDGSDAGGKAFRKPRRRLKRKPSKTEETDEFSNQRVMANVRERQRTQSLNDAFKSLQQIIPTLPSDKLSKIQTLKLATRYIDFLCRMLSSSDISLLKALEAQGSPSAYGSASSLLSAAANGAEADLKCLRKANGAPIIPPEKLSYLFGVWRMEGDAQHQKA
- binding [9]: binds

B4: Pangolin ORF-CC (Pan-CC), P91943 1-751 (protein)
chain: MPHTHSRHGSSGDDLCSTDEVKIFKDEGDREDEKISSENLLVEEKSSLIDLTESEEKGHKISRPDHSPVFNKLDTHAPSFNMGYLVSPYSYANGSPSGLPVTMANKIGLPPFFCHNADPLSTPPPAHCGIPPYQLDPKMGLTRPALYPFAGGQYPYPMLSSDMSQVASWHTPSVYSASSFRTPYPSSLPINTTLASDFPFRFSPSLLPSVHATSHHVINAHSAIVGVSSKQECGVQDPTTNNRYPRNLEAKHTSNAQSNESKETTNDKKKPHIKKPLNAFMLYMKEMRAKVVAECTLKESAAINQILGRRWHELSREEQSKYYEKARQERQLHMELYPGWSARDNYGYVSKKKKRKKDRSTTDSGGNNMKKCRARFGLDQQSQWCKPCRRKKKCIRYMEALNGNGPAEDGSCFDEHGSQLSDDDEDDYDDDKLGGSCGSADETNKIEDEDSESLNQSMPSPGCLSGLSSLQSPSTTMSLASPLNMNANSATNVIFPASSNALLIVGADQPTAQQRPTLVSTSGSSSGSTSSISTTPNTSSTVSPVTCMTGPCLGSSQERAMMLGNRFSHLGMGLSPPVVSTSTSKSEPFFKPHPTVCNNPIFALPSIGNCSLNISSMPNTSRNPIGANPRDINNPLSINQLTKRREYKNVELIEASESKTIVAHAATSIIQHVAVNGYHANHSLLNSNLGHLHHQLNNRTENPNRSEQTMLSVSNHSVNSSECHKESDSQAIVSSNPPNAGSSDNGVISVS
- binding [10]: no binding
- binding [11]: no binding

Reference: paper PMC6177257
